Experimental data: PubChem BioAssay AID504804 (Drosophila RNAi Screening Center, 2011)
The deposit covers about 19,000 reagents; this is a random part of those with a known target gene and a result. Over the whole deposit, 47 (0.25%) are marked active. 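Signals are raw, not normalised; exact z-scores behind calls not deposited; actives needed confirmation, so some wells reaching 2 SD are inactive.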 Names joined by + are all predicted targets of the reagent.

Assay: 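Fly genes whose loss lessens doxorubicin-driven cell death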 (primary screen)
Cell system: Drosophila Kc cells
Reagents: long dsRNA against Drosophila genes, 0.5 µg dsRNA per well
Duration: 96 h (48 h knock-down, then 48 h drug)
Challenge: doxorubicin 5 µg/ml for 48 h, added 48 h after dsRNA
Measurement: 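Viability measured as cellular ATP by luminescence after 48 h knock-down then 48 h doxorubicin at 5 µg/ml; unnormalised plate counts for each replicate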
Reading the numbers: raw ATP luminescence: higher = more viable cells, protection from doxorubicin
Rule for the call: 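z-score of 2 or more over plate mean in both duplicates, retained only when retests and separate dsRNAs confirm the protection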

predicted target | DRSC id | raw ATP luminescence, replicate 1 | raw ATP luminescence, replicate 2 | outcome
CG3632 | DRSC19137 | 2.84e5 | 3.26e5 | inactive
IscU | DRSC16572 | 34530 | 39327 | inactive
CG15650 | DRSC04241 | 67927 | 65567 | inactive
lectin-24A | DRSC00604 | 22060 | 27393 | inactive
CG3092 | DRSC04336 | 60373 | 55997 | inactive
Hem | DRSC11865 | 19870 | 22097 | inactive
Vajk4 | DRSC06589 | 60430 | 38450 | inactive
CG14397 | DRSC02381 | 69850 | 57123 | inactive
CG10055 | DRSC12503 | 74287 | 65520 | inactive
Ppa | DRSC04598 | 57687 | 50047 | inactive
DNAlig4 | DRSC19436 | 3.17e5 | 2.72e5 | inactive
CG7024 | DRSC18414 | 36090 | 37560 | inactive
CG14435 | DRSC17928 | 17760 | 26740 | inactive
Osi8 | DRSC12277 | 55587 | 51800 | inactive
Tsp5D | DRSC18380 | 54550 | 62090 | inactive
peng | DRSC20583 | 2.63e5 | 2.52e5 | inactive
Slc25A46b | DRSC02888 | 57563 | 77477 | inactive
Flo2 | DRSC19062 | 2.11e5 | 2.15e5 | inactive
Flo2 | DRSC20244 | 4.12e5 | 3.48e5 | inactive
Or19a | DRSC20684 | 3.41e5 | 3.55e5 | inactive
twit | DRSC03210 | 65487 | 73897 | inactive
CSN1a | DRSC01951 | 46290 | 82523 | inactive
CG18788 | DRSC02697 | 60417 | 70540 | inactive
CG4338 | DRSC15564 | 59193 | 20483 | inactive

2 of these entries, set out differently:
twit [DRSC03210]
- raw ATP luminescence, replicate 1: 65487
- raw ATP luminescence, replicate 2: 73897
- outcome: inactive

CSN1a [DRSC01951]
- raw ATP luminescence, replicate 1: 46290
- raw ATP luminescence, replicate 2: 82523
- outcome: inactive

Further results:
predicted target | DRSC id | raw ATP luminescence, replicate 1 | raw ATP luminescence, replicate 2 | outcome
CG2493 | DRSC02707 | 95523 | 75417 | inactive
CG6325 | DRSC16020 | 41097 | 22103 | inactive
fend | DRSC17601 | 2.01e5 | 2.10e5 | inactive
fend | DRSC17867 | 3.04e5 | 2.44e5 | inactive
COX6AL2 + Ir75d | DRSC10081 | 53920 | 61317 | inactive
CG3287 (retired record) | DRSC04991 | 49137 | 88647 | inactive
rt | DRSC11391 | 77687 | 56920 | inactive
lola | DRSC05220 | 41550 | 51630 | inactive
lola | DRSC05221 | 74920 | 1.08e5 | inactive
lola | DRSC05222 | 71777 | 98777 | inactive
lola | DRSC05223 | 48760 | 49060 | inactive
lola | DRSC05224 | 1.08e5 | 1.20e5 | inactive
lola | DRSC06738 | 55303 | 50337 | inactive
lola | DRSC06739 | 35093 | 62943 | inactive
lola | DRSC06740 | 54363 | 58400 | inactive
lola | DRSC06741 | 55250 | 1.08e5 | inactive
lola | DRSC06742 | 18177 | 23217 | inactive
lola | DRSC07646 | 62637 | 72463 | inactive
lola | DRSC07647 | 35380 | 66737 | inactive
